Paper PMC9723622
These are yes or no findings as the source states them, for the method shown. In cells and extracts the contact can be indirect. A yes stands for co-enrichment or nearness to the bait. Other partners may have been found.

Amino acid sequences for entries named in this document (tags omitted).
UniProt P09874: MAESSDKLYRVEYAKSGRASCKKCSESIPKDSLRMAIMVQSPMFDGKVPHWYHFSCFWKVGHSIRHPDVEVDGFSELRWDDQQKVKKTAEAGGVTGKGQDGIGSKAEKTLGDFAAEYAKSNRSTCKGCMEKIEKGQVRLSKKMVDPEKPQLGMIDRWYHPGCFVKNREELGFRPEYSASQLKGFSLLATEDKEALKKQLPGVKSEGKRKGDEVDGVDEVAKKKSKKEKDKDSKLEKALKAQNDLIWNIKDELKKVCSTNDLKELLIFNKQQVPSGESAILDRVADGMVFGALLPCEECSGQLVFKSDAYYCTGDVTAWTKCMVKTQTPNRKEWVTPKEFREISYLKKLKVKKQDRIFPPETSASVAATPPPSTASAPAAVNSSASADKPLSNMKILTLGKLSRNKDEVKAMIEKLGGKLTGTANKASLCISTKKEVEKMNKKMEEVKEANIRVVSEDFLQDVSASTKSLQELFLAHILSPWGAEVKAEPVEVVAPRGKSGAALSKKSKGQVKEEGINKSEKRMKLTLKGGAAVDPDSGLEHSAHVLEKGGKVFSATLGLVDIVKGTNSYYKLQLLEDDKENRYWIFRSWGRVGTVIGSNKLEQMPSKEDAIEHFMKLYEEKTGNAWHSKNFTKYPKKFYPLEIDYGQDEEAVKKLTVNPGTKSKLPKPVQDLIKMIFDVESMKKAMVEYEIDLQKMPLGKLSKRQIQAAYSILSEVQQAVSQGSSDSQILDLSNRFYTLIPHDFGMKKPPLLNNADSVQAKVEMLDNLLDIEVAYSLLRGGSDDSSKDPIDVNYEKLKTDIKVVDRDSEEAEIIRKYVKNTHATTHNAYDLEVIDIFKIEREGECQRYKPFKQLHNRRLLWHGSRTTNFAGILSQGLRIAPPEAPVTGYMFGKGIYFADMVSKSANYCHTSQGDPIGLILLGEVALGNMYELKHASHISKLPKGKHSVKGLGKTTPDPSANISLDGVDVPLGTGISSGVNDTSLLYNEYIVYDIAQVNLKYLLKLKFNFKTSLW

B1: RNASEH2B (protein, UniProt Q5TBB1 1-312)
chain: MAAGVDCGDGVGARQHVFLVSEYLKDASKKMKNGLMFVKLVNPCSGEGAIYLFNMCLQQLFEVKVFKEKHHSWFINQSVQSGGLLHFATPVDPLFLLLHYLIKADKEGKFQPLDQVVVDNVFPNCILLLKLPGLEKLLHHVTEEKGNPEIDNKKYYKYSKEKTLKWLEKKVNQTVAALKTNNVNVSSRVQSTAFFSGDQASTDKEEDYIRYAHGLISDYIPKELSDDLSKYLKLPEPSASLPNPPSKKIKLSDEPVEAKEDYTKFNTKDLKTEKKNSKMTAAQKALAKVDKSGMKSIDTFFGVKNKKKIGKV
B2: MCM6 (protein, UniProt Q14566 1-821)
chain: MDLAAAAEPGAGSQHLEVRDEVAEKCQKLFLDFLEEFQSSDGEIKYLQLAEELIRPERNTLVVSFVDLEQFNQQLSTTIQEEFYRVYPYLCRALKTFVKDRKEIPLAKDFYVAFQDLPTRHKIRELTSSRIGLLTRISGQVVRTHPVHPELVSGTFLCLDCQTVIRDVEQQFKYTQPNICRNPVCANRRRFLLDTNKSRFVDFQKVRIQETQAELPRGSIPRSLEVILRAEAVESAQAGDKCDFTGTLIVVPDVSKLSTPGARAETNSRVSGVDGYETEGIRGLRALGVRDLSYRLVFLACCVAPTNPRFGGKELRDEEQTAESIKNQMTVKEWEKVFEMSQDKNLYHNLCTSLFPTIHGNDEVKRGVLLMLFGGVPKTTGEGTSLRGDINVCIVGDPSTAKSQFLKHVEEFSPRAVYTSGKASSAAGLTAAVVRDEESHEFVIEAGALMLADNGVCCIDEFDKMDVRDQVAIHEAMEQQTISITKAGVKATLNARTSILAAANPISGHYDRSKSLKQNINLSAPIMSRFDLFFILVDECNEVTDYAIARRIVDLHSRIEESIDRVYSLDDIRRYLLFARQFKPKISKESEDFIVEQYKHLRQRDGSGVTKSSWRITVRQLESMIRLSEAMARMHCCDEVQPKHVKEAFRLLNKSIIRVETPDVNLDQEEEIQMEVDEGAGGINGHADSPAPVNGINGYNEDINQESAPKASLRLGFSEYCRISNLIVLHLRKVEEEEDESALKRSELVNWYLKEIESEIDSEEELINKKRIIEKVIHRLTHYDHVLIELTQAGLKGSTEGSESYEEDPYLVVNPNYLLED
B3: MCM3 (protein, UniProt P25205 1-808)
chain: MAGTVVLDDVELREAQRDYLDFLDDEEDQGIYQSKVRELISDNQYRLIVNVNDLRRKNEKRANRLLNNAFEELVAFQRALKDFVASIDATYAKQYEEFYVGLEGSFGSKHVSPRTLTSCFLSCVVCVEGIVTKCSLVRPKVVRSVHYCPATKKTIERRYSDLTTLVAFPSSSVYPTKDEENNPLETEYGLSVYKDHQTITIQEMPEKAPAGQLPRSVDVILDDDLVDKAKPGDRVQVVGTYRCLPGKKGGYTSGTFRTVLIACNVKQMSKDAQPSFSAEDIAKIKKFSKTRSKDIFDQLAKSLAPSIHGHDYVKKAILCLLLGGVERDLENGSHIRGDINILLIGDPSVAKSQLLRYVLCTAPRAIPTTGRGSSGVGLTAAVTTDQETGERRLEAGAMVLADRGVVCIDEFDKMSDMDRTAIHEVMEQGRVTIAKAGIHARLNARCSVLAAANPVYGRYDQYKTPMENIGLQDSLLSRFDLLFIMLDQMDPEQDREISDHVLRMHRYRAPGEQDGDAMPLGSAVDILATDDPNFSQEDQQDTQIYEKHDNLLHGTKKKKEKMVSAAFMKKYIHVAKIIKPVLTQESATYIAEEYSRLRSQDSMSSDTARTSPVTARTLETLIRLATAHAKARMSKTVDLQDAEEAVELVQYAYFKKVLEKEKKRKKRSEDESETEDEEEKSQEDQEQKRKRRKTRQPDAKDGDSYDPYDFSDTEEEMPQVHTPKTADSQETKESQKVELSESRLKAFKVALLDVFREAHAQSIGMNRLTESINRDSEEPFSSVEIQAALSKMQDDNQVMVSEGIIFLI
B4: THOC3 (protein, UniProt Q96J01 1-351)
chain: MAVPAAAMGPSALGQSGPGSMAPWCSVSSGPSRYVLGMQELFRGHSKTREFLAHSAKVHSVAWSCDGRRLASGSFDKTASVFLLEKDRLVKENNYRGHGDSVDQLCWHPSNPDLFVTASGDKTIRIWDVRTTKCIATVNTKGENINICWSPDGQTIAVGNKDDVVTFIDAKTHRSKAEEQFKFEVNEISWNNDNNMFFLTNGNGCINILSYPELKPVQSINAHPSNCICIKFDPMGKYFATGSADALVSLWDVDELVCVRCFSRLDWPVRTLSFSHDGKMLASASEDHFIDIAEVETGDKLWEVQCESPTFTVAWHPKRPLLAFACDDKDGKYDSSREAGTVKLFGLPNDS
B5: THOC1 (protein, UniProt Q96FV9 1-657)
chain: MSPTPPLFSLPEARTRFTKSTREALNNKNIKPLLSTFSQVPGSENEKKCTLDQAFRGILEEEIINHSSCENVLAIISLAIGGVTEGICTASTPFVLLGDVLDCLPLDQCDTIFTFVEKNVATWKSNTFYSAGKNYLLRMCNDLLRRLSKSQNTVFCGRIQLFLARLFPLSEKSGLNLQSQFNLENVTVFNTNEQESTLGQKHTEDREEGMDVEEGEMGDEEAPTTCSIPIDYNLYRKFWSLQDYFRNPVQCYEKISWKTFLKYSEEVLAVFKSYKLDDTQASRKKMEELKTGGEHVYFAKFLTSEKLMDLQLSDSNFRRHILLQYLILFQYLKGQVKFKSSNYVLTDEQSLWIEDTTKSVYQLLSENPPDGERFSKMVEHILNTEENWNSWKNEGCPSFVKERTSDTKPTRIIRKRTAPEDFLGKGPTKKILMGNEELTRLWNLCPDNMEACKSETREHMPTLEEFFEEAIEQADPENMVENEYKAVNNSNYGWRALRLLARRSPHFFQPTNQQFKSLPEYLENMVIKLAKELPPPSEEIKTGEDEDEEDNDALLKENESPDVRRDKPVTGEQIEVFANKLGEQWKILAPYLEMKDSEIRQIECDSEDMKMRAKQLLVAWQDQEGVHATPENLINALNKSGLSDLAESLTNDNETNS
B6: UHRF1 (protein, UniProt Q96T88 1-793)
chain: MWIQVRTMDGRQTHTVDSLSRLTKVEELRRKIQELFHVEPGLQRLFYRGKQMEDGHTLFDYEVRLNDTIQLLVRQSLVLPHSTKERDSELSDTDSGCCLGQSESDKSSTHGEAAAETDSRPADEDMWDETELGLYKVNEYVDARDTNMGAWFEAQVVRVTRKAPSRDEPCSSTSRPALEEDVIYHVKYDDYPENGVVQMNSRDVRARARTIIKWQDLEVGQVVMLNYNPDNPKERGFWYDAEISRKRETRTARELYANVVLGDDSLNDCRIIFVDEVFKIERPGEGSPMVDNPMRRKSGPSCKHCKDDVNRLCRVCACHLCGGRQDPDKQLMCDECDMAFHIYCLDPPLSSVPSEDEWYCPECRNDASEVVLAGERLRESKKKAKMASATSSSQRDWGKGMACVGRTKECTIVPSNHYGPIPGIPVGTMWRFRVQVSESGVHRPHVAGIHGRSNDGAYSLVLAGGYEDDVDHGNFFTYTGSGGRDLSGNKRTAEQSCDQKLTNTNRALALNCFAPINDQEGAEAKDWRSGKPVRVVRNVKGGKNSKYAPAEGNRYDGIYKVVKYWPEKGKSGFLVWRYLLRRDDDEPGPWTKEGKDRIKKLGLTMQYPEGYLEALANREREKENSKREEEEQQEGGFASPRTGKGKWKRKSAGGGPSRAGSPRRTSKKTKVEPYSLTAQQSSLIREDKSNAKLWNEVLASLKDRPASGSPFQLFLSKVEETFQCICCQELVFRPITTVCQHNVCKDCLDRSFRAQVFSCPACRYDLGRSYAMQVNQPLQTVLNQLFPGYGNGR
B7: ANLN (protein, UniProt Q9NQW6 1-1124)
chain: MDPFTEKLLERTRARRENLQRKMAERPTAAPRSMTHAKRARQPLSEASNQQPLSGGEEKSCTKPSPSKKRCSDNTEVEVSNLENKQPVESTSAKSCSPSPVSPQVQPQAADTISDSVAVPASLLGMRRGLNSRLEATAASSVKTRMQKLAEQRRRWDNDDMTDDIPESSLFSPMPSEEKAASPPRPLLSNASATPVGRRGRLANLAATICSWEDDVNHSFAKQNSVQEQPGTACLSKFSSASGASARINSSSVKQEATFCSQRDGDASLNKALSSSADDASLVNASISSSVKATSPVKSTTSITDAKSCEGQNPELLPKTPISPLKTGVSKPIVKSTLSQTVPSKGELSREICLQSQSKDKSTTPGGTGIKPFLERFGERCQEHSKESPARSTPHRTPIITPNTKAIQERLFKQDTSSSTTHLAQQLKQERQKELACLRGRFDKGNIWSAEKGGNSKSKQLETKQETHCQSTPLKKHQGVSKTQSLPVTEKVTENQIPAKNSSTEPKGFTECEMTKSSPLKITLFLEEDKSLKVTSDPKVEQKIEVIREIEMSVDDDDINSSKVINDLFSDVLEEGELDMEKSQEEMDQALAESSEEQEDALNISSMSLLAPLAQTVGVVSPESLVSTPRLELKDTSRSDESPKPGKFQRTRVPRAESGDSLGSEDRDLLYSIDAYRSQRFKETERPSIKQVIVRKEDVTSKLDEKNNAFPCQVNIKQKMQELNNEINMQQTVIYQASQALNCCVDEEHGKGSLEEAEAERLLLIATGKRTLLIDELNKLKNEGPQRKNKASPQSEFMPSKGSVTLSEIRLPLKADFVCSTVQKPDAANYYYLIILKAGAENMVATPLASTSNSLNGDALTFTTTFTLQDVSNDFEINIEVYSLVQKKDPSGLDKKKKTSKSKAITPKRLLTSITTKSNIHSSVMASPGGLSAVRTSNFALVGSYTLSLSSVGNTKFVLDKVPFLSSLEGHIYLKIKCQVNSSVEERGFLTIFEDVSGFGAWHRRWCVLSGNCISYWTYPDDEKRKNPIGRINLANCTSRQIEPANREFCARRNTFELITVRPQREDDRETLVSQCRDTLCVTKNWLSADTKEERDLWMQKLNQVLVDIRLWQPDACYKPIGKP

molecular target: full-length PARP1 tagged on the N-terminus with APEX2 (expressed in HEK293T cells) (human) (UniProt P09874); assay: proximity labelling; APEX2-PARP1 in HEK293T cells after olaparib or DMSO treatment; SILAC, NeutrAvidin pull-down, LC-MS/MS

binding, binds:
B1, B2, B3, B4, B5

molecular target: full-length PARP1 tagged on the N-terminus with APEX2 (expressed in U2OS cells) (human) (UniProt P09874); assay: proximity labelling; APEX2-PARP1 in SILAC-labelled U2OS cells; 500 uM biotin phenol 2 h, 1 mM H2O2 2 min, against no H2O2; nuclear extract, NeutrAvidin pull-down, LC-MS/MS; FDR < 1%

binding, binds:
B6, B7
